The experiment deals with L1210 leukemia ip in BDF1 mice, survival T/C. The experiment is described as follows: NCI In Vivo Anticancer Drug Screen. Data for tumor model L1210 Leukemia (intraperitoneal) in B6D2F1 (BDF1) mice. As to conditions: T/C endpoint: mean survival time, higher T/C = longer survival.
The mark [1] stands for this setting: dose: 400.0 mg/kg/injection, schedule: Q04DX003 (ip), vehicle: Klucel (hydroxypropylcellulose) (HPC).
Setting [2] is: dose: 400.0 mg/kg/injection, schedule: Q04DX003 (ip), vehicle: saline with Tween-80.
[3] abbreviates: dose: 100.0 mg/kg/injection, schedule: Q01DX001 (ip), vehicle: saline.
[4] abbreviates: dose: 200.0 mg/kg/injection, schedule: Q01DX001 (ip), vehicle: saline.
The mark [5] stands for this setting: dose: 400.0 mg/kg/injection, schedule: Q01DX001 (ip), vehicle: saline.
[6] abbreviates: dose: 200.0 mg/kg/injection, schedule: Q01DX009 (ip), vehicle: Klucel (hydroxypropylcellulose) (HPC).
Setting [7] is: dose: 200.0 mg/kg/injection, schedule: Q04DX003 (ip), vehicle: Klucel (hydroxypropylcellulose) (HPC).
The mark [8] stands for this setting: dose: 675.0 mg/kg/injection, schedule: Q01DX Z (ip), vehicle: saline.

SMILES strings stand for the structures. The list does not hold the whole screen: it gathers tests that were run many times, whatever their T/C, doses with no T/C, and many T/C values between a quarter and a half above the control. Further doses and runs are listed elsewhere. T/C: endpoint of the treated group in % of that of the vehicle group. Some doses have a count of surviving animals in place of a T/C: the source files T/C as zero there, which appears to mark a toxic dose or a test without result, not a measured value. Some survivor counts are full or nearly so, which does not show that the dose was tolerated: the source hardly ever lists a survival T/C far under the control, and the zero likely stands for such cases as well. Survivors were counted at the toxicity check, usually on the fifth day, unless a day is given; later deaths do not show. Schedule codes are those of the source, taken here to give the interval after Q, in days (D) or hours (H), and the number of doses after X. Some schedule codes hold Z or #, which are not explained here. Where survival is the endpoint, this PubChem deposit counts one and a half times the control or more as active, and values a quarter to a half above the control carry no call in these data; other NCI protocols may use other cut-offs. Some entries hold several experiments; their values stand side by side, smallest first.

On to `O=N[O-].O=N[O-].[Co].[NH-]CC[N-]CCO.[NH-]CC[N-]CCO`, for which the survivor count by setting is: (dose: 200.0 mg/kg/injection, schedule: Q01DX009 (ip), vehicle: water) 0 of 6; (dose: 200.0 mg/kg/injection, schedule: Q04DX003 (ip), vehicle: water) 3 of 6; (dose: 400.0 mg/kg/injection, schedule: Q04DX003 (ip), vehicle: water) 0 of 6.
For `O=C(O)C(F)(F)C(F)(F)C(F)(F)F.[Ag]`, the survivor count runs as follows: (dose: 75.0 mg/kg/injection, schedule: Q01DX001 (ip), vehicle: acetone) 3 of 6; (dose: 150.0 mg/kg/injection, schedule: Q01DX001 (ip), vehicle: acetone) 0 of 6; (dose: 300.0 mg/kg/injection, schedule: Q01DX001 (ip), vehicle: acetone) 0 of 6.
Consider `CN(C)c1ccc(N2C(=O)C=CC2=O)cc1`, for which the survivor count (dose: 25.0 mg/kg/injection, schedule: Q01DX001 (ip), vehicle: saline with Tween-80) is 2 of 6.
Consider `CN(C)CCCN=C=NC1CCCCC1`, for which, under setting [1], the survivor count is given as 6 of 6.
For `O=P(Oc1ccccc1)(Oc1ccccc1)C(Nc1ccccc1)c1cccnc1` (configuration not stated), under setting [2], the survivor count was 6 of 6.
For the molecule `O=C(O)c1scc2c1CCCC2`, under setting [2], the survivor count is recorded as 3 of 6.
Turning to `O=C1C(CO)=C[C@@H](O)[C@H]2O[C@@H]12`, the survivor count under setting [3] is recorded as 2 of 4, the survivor count under setting [4] was 0 of 4 and the survivor count under setting [5] is 0 of 4.
Regarding `CC1CC(NC(=S)S)CC(C)(C)C1` (configuration not stated), the survivor count runs as follows: (dose: 100.0 mg/kg/injection, schedule: Q01DX009 (ip), vehicle: Klucel (hydroxypropylcellulose) (HPC)) 2 of 6; under setting [6], 4 of 6; (dose: 400.0 mg/kg/injection, schedule: Q01DX009 (ip), vehicle: Klucel (hydroxypropylcellulose) (HPC)) 2 of 6; under setting [1], 2 of 6.
Take `NCC1CC2CCC1C2` (configuration not stated): the survivor count (dose: 400.0 mg/kg/injection, schedule: Q01DX009 (ip), vehicle: saline) is given as 6 of 6.
As to `CC(=O)[O][Hg][c]1ccc(Cl)cc1`, the survivor count is 0 of 4 under setting [3], 0 of 4 under setting [4] and 0 of 4 under setting [5].
With `COC1=CC(=O)C=C(OC(C)=O)C12Oc1c(Cl)c(C)c(Cl)c(O)c1C2=O` (configuration not stated), the survivor count is recorded as 0 of 3 (dose: 100.0 mg/kg/injection, schedule: Q04DX002 (ip), vehicle: saline with Tween-80); 0 of 3 (dose: 200.0 mg/kg/injection, schedule: Q04DX002 (ip), vehicle: saline with Tween-80); 0 of 3 (dose: 400.0 mg/kg/injection, schedule: Q04DX002 (ip), vehicle: saline with Tween-80).
Turning to `CCc1nc2c(c(=O)[nH]1)C(c1ccc(Cl)cc1)C(C)(C)O2` (configuration not stated), the survivor count (dose: 100.0 mg/kg/injection, schedule: Q04DX003 (ip), vehicle: acetone) is reported as 6 of 6.
As to `CS(=O)(=O)OCCN(CCOS(C)(=O)=O)c1ccc(C=Nc2cc(Cl)c(O)c(Cl)c2)cc1`, the survivor count was 6 of 6 under setting [7] and 5 of 6 under setting [1].
For `Nc1ncnc2nc(Cc3ccccc3)[nH]c12`, the survivor count (dose: 400.0 mg/kg/injection, schedule: Q01DX001 (ip), vehicle: gum acacia) is 1 of 6.
For `Cc1c2ccc3ccccc3c2c(C)[n+]2ccccc12`, the survivor count (dose: 16.0 mg/kg/injection, schedule: Q01DX Z (ip), vehicle: carboxymethylcellulose (CMC)) is 1 of 6.
Turning to `BrC1(c2ccccc2)C(c2ccccc2)=C1c1ccccc1`, under “dose: 400.0 mg/kg/injection, schedule: Q01DX001 (ip), vehicle: carboxymethylcellulose (CMC)”, the survivor count is on record as 1 of 4.
For `Cc1cccc(NC(=O)Oc2ccccc2C(N)=O)c1`, the survivor count under setting [6] is reported as 3 of 3.
`CCCCCCCCCCCCNNC(=O)OCCO`: the survivor count under setting [5] is 1 of 6.
For the molecule `O=[N+]([O-])c1cc([N+](=O)[O-])c(Cl)s1`, for the setting “dose: 50.0 mg/kg/injection, schedule: Q01DX009 (ip), vehicle: saline with Tween-80”, the survivor count is recorded as 5 of 6.
For the molecule `O=C1C(Br)=C(Br)C(=O)c2ccccc21`, the survivor count is reported as 0 of 4 under setting [4] and 0 of 4 under setting [5].
For `CC(C)(C)N1CCOCC1`, the survivor count is recorded as 6 of 6 (dose: 150.0 mg/kg/injection, schedule: Q01DX009 (ip), vehicle: saline with Tween-80); 6 of 6 (dose: 225.0 mg/kg/injection, schedule: Q01DX009 (ip), vehicle: saline with Tween-80); 6 of 6 (dose: 335.0 mg/kg/injection, schedule: Q01DX009 (ip), vehicle: saline with Tween-80).
On to `CCCCOP(=O)(N1CC1(C)C)N1CC1(C)C` (configuration not stated), for which the survivor count was 1 of 3 (dose: 100.0 mg/kg/injection, schedule: Q04DX002 (ip), vehicle: saline); 0 of 3 (dose: 200.0 mg/kg/injection, schedule: Q04DX002 (ip), vehicle: saline); 0 of 3 (dose: 400.0 mg/kg/injection, schedule: Q04DX002 (ip), vehicle: saline).
As for `Nc1ccc2c(c1)-c1ccccc1C1=NCCN12`, the survivor count runs as follows: (dose: 40.0 mg/kg/injection, schedule: Q04DX003 (ip), vehicle: Klucel (hydroxypropylcellulose) (HPC)) 6 of 6; (dose: 80.0 mg/kg/injection, schedule: Q04DX003 (ip), vehicle: Klucel (hydroxypropylcellulose) (HPC)) 0 of 6; (dose: 100.0 mg/kg/injection, schedule: Q04DX003 (ip), vehicle: Klucel (hydroxypropylcellulose) (HPC)) 0 of 6; under setting [7], 0 of 6; under setting [1], 0 of 6.
For the molecule `C[N+]1(C)CCc2ccccc2C1Cc1ccc(Oc2ccc(CC3c4ccccc4CC[N+]3(C)C)cc2)cc1` (configuration not stated), the survivor count is, setting by setting: (dose: 50.0 mg/kg/injection, schedule: Q01DX009 (ip), vehicle: other) 0 of 3; (dose: 100.0 mg/kg/injection, schedule: Q01DX009 (ip), vehicle: other) 0 of 3; (dose: 200.0 mg/kg/injection, schedule: Q01DX009 (ip), vehicle: other) 0 of 3.
As for `Nc1ccc(C(=O)NO)cc1`, the T/C is 125 and 128 % of control (dose: 300.0 mg/kg/injection, schedule: Q01DX Z (ip), vehicle: saline); 137 % of control (dose: 450.0 mg/kg/injection, schedule: Q01DX Z (ip), vehicle: carboxymethylcellulose (CMC)); 129 and 140 % of control (dose: 450.0 mg/kg/injection, schedule: Q01DX Z (ip), vehicle: saline); 127 % of control under setting [8]. Further, the survivor count reads like this: (dose: 675.0 mg/kg/injection, schedule: Q01DX Z (ip), vehicle: carboxymethylcellulose (CMC)) 2 of 6; under setting [8], 3 of 6; (dose: 1007.0 mg/kg/injection, schedule: Q01DX Z (ip), vehicle: saline) 0 of 6.
`O=C(O)C1CC(Br)C(Br)CC1C(=O)Nc1ccc(Cl)c(Cl)c1` (configuration not stated): for the setting “dose: 400.0 mg/kg/injection, schedule: Q04DX002 (ip), vehicle: Klucel (hydroxypropylcellulose) (HPC)”, the survivor count is on record as 0 of 3.
Turning to `COc1ccc(CC2C(=O)NC(C)C(=O)N(C)C3C(=O)N(C)C(Cc4ccc(O)c(c4)Oc4ccc(cc4)C3O)C(=O)NC(C)C(=O)NC(C)C(=O)N2C)cc1` (configuration not stated) (tested in a mixture with another compound), under “dose: 4.0 mg/kg/injection, schedule: Q01DX009 (ip), vehicle: carboxymethylcellulose (CMC)”, the survivor count is reported as 1 of 6.
As for `COc1ccn(C)c(=O)n1`, the survivor count (dose: 50.0 mg/kg/injection, schedule: Q01DX009 (ip), vehicle: saline) is recorded as 2 of 6; the survivor count (dose: 100.0 mg/kg/injection, schedule: Q04DX003 (ip), vehicle: saline) was 1 of 6; the survivor count (dose: 200.0 mg/kg/injection, schedule: Q04DX003 (ip), vehicle: saline) is given as 0 of 6; the survivor count (dose: 400.0 mg/kg/injection, schedule: Q04DX003 (ip), vehicle: saline) was 0 of 6.

The record behind these values is PubChem BioAssay AID248 (DTP/NCI, 2004).
